Among the data in patent publication US20250136686A1 (GUANGDONG KEGUANDA PHARMACEUTICAL TECHNOLOGY, published 2025) are binding values, retold here.

The target of test [1] is T1, CD101 (human) (UniProt Q93033).
T1 sequence (looked up): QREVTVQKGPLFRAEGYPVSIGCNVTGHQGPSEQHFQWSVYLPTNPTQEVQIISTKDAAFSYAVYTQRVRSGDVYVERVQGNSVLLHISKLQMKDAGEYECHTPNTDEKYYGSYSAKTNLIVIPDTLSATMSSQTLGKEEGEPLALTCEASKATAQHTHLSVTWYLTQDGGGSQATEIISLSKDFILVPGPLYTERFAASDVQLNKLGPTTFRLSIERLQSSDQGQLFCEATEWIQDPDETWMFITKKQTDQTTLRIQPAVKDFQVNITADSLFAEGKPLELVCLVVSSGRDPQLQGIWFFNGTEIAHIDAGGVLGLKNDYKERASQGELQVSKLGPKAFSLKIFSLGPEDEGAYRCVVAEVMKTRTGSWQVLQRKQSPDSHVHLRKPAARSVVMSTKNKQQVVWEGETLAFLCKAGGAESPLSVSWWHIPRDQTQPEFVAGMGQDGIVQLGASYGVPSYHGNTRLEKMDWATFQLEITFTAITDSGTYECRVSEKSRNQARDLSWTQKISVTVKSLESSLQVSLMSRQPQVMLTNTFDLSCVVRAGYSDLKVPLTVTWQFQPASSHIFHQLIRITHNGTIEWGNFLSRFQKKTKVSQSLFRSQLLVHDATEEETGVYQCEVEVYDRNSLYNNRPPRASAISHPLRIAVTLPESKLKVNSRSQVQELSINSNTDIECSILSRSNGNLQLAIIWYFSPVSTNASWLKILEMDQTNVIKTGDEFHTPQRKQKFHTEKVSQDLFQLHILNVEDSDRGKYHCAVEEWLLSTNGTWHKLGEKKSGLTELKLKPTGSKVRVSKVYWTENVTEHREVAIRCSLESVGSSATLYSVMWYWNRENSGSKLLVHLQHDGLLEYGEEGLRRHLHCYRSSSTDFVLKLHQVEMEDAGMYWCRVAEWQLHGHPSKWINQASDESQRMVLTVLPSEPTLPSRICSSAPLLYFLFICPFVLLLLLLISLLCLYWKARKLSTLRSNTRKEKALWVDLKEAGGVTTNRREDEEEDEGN
The experiment in a line: FACS, culture supernatant on 293F-CD101 against 293F cells.

The target in test [2] is T1, CD101 (human). The experiment in a line: FACS, purified chimeric antibody on cells expressing CD101. (In general: In flow cytometry, cells or beads pass a laser one at a time.)

These are yes or no findings as the source states them, for the method shown. Some entries that bind do so weakly or less than the wild type.

B1: chimeric antibody CA2 (antibody, V domains shown)
VH: EVQLQQSGAELVRPGTSVKVSCKASGYAFTHYFIEWVKQRPGQGLEWIGVITPGSGGTNYNEKFKGKATLTADKSSSTAYMQLSSLTSEDSAVYFCARGNHGNYWGQGTTLTVSS
VL: DIQLTQPPASLSVSVGETVTITCRASENIYSNLAWYQQKQGKSPQLLVYAATNLADGVPSRFSGSGSGTQYSLKINSLQSEDFGSYYCQHFWGNPWTFGGGTKLEIK
For the molecule B1, the binding result with CD101 (human) [1] and with CD101 (human) [2] was “binds” each time.
